No constants are given. Whether binding was seen depends on the method and setting. Binding seen in cells or lysates may run through a third protein. Binding calls can cover weak binding; strength is not graded here.

The target in the assay is MCA-3::VN173 (C. elegans). The assay is described as follows: split reporter; BiFC in vivo in C. elegans: split mVenus (VN173 and VC155); FLWR-1 fusion from its own promoter, partner fusion in body wall muscle cells; fluorescence imaged with x100 objective, 460 nm excitation, 500 ms exposure.

B1: FLWR-1::VC155 (protein, UniProt Q93533 1-166)
chain: MGAAASGVSTQMQAEHDPNAAFPWWVRFLAKGVAILGGFLSLFFGVLGLITLSATCMVAILLQMTAGALVIALEAPFCCQFVDFIEKIARFSESRALWHKAAIYGAMGLIPIFLCIELNTILGSGTIFASGVIYGFMALGKKADRSNMMAAGDPAWSPQVNQSNIP
With B1, the binding result is “binds”.
